# Results are given in words; binding and its absence hold for the method and conditions named. Some binding calls cover weakened binding; strength is not graded here.
# Assays:
# [1] = target: Cynomolgus CLL-1 on cynomolgus PBMCs (cynomolgus monkey); experiment: FACS, cynomolgus PBMC populations
# [2] = target: Cynomolgus CLL-1 on cynomolgus PBMCs (cynomolgus monkey); experiment: FACS staining of pooled cynomolgus PBMC (three donors), live-gated, populations defined by CD3, CD19, CD14 (granulocytes), CD14 (monocytes), CD89; antibody concentration not given
Binder,binding [1],binding [2]
"human chimeric CLL-1 antibody ChiM26 (antibody, V domains shown) VH: EVQLQQSGPELVKPGASVKMSCKASGYTFTSYFIHWVKQKPGQGLEWIGFINPYNDGSKYNEKFKGKATLTSDKSSSTAYMELSSLTSEDSAVYYCTRDDGYYGYAMDYWGQGTSVTVSS VL: DIQMTQSPSSLSASLGERVSLTCRATQELSGYLSWLQQKPDGTIKRLIYAASTLDSGVPKRFSGNRSGSDYSLTISSLESEDFADYYCLQYAIYPYTFGGGTKLEIKR",binds,binds
"CLL-1 antibody clone M26 (antibody, V domains shown, Conjugated to saporin in the ADC assays) VH: EVQLQQSGPELVKPGASVKMSCKASGYTFTSYFIHWVKQKPGQGLEWIGFINPYNDGSKYNEKFKGKATLTSDKSSSTAYMELSSLTSEDSAVYYCTRDDGYYGYAMDYWGQGTSVTVSS VL: DIQMTQSPSSLSASLGERVSLTCRATQELSGYLSWLQQKPDGTIKRLIYAASTLDSGVPKRFSGNRSGSDYSLTISSLESEDFADYYCLQYAIYPYTFGGGTKLEIKR",binds,binds
"human chimeric CLL-1 antibody ChiM31 (antibody, V domains shown) VH: EVQLQQSGPELVKPGASVKMSCKASGYTFTSYVMHWVKQKPGQGLEWIGYINPYNDGTKYNEKFKGKATLTSDTSSSTAYMELNSLTSEDSAVYFCARPIYFDNDYFDYWGQGTTLKVSS VL: TIVLTQSPASLAVSLGQRATISCRASESVDSYGNSFMHWYQQKPGQPPKLLIYLASNLESGVPARFSGSGSRTDFTLTIDPVEADDAATYYCQQNNYDPWTFGGGTKLEIK",binds,binds
"CLL-1 antibody clone M31 (antibody, IgG2a, V domains shown) VH: EVQLQQSGPELVKPGASVKMSCKASGYTFTSYVMHWVKQKPGQGLEWIGYINPYNDGTKYNEKFKGKATLTSDTSSSTAYMELNSLTSEDSAVYFCARPIYFDNDYFDYWGQGTTLKVSS VL: TIVLTQSPASLAVSLGQRATISCRASESVDSYGNSFMHWYQQKPGQPPKLLIYLASNLESGVPARFSGSGSRTDFTLTIDPVEADDAATYYCQQNNYDPWTFGGGTKLEIK",binds,binds
"human chimeric CLL-1 antibody ChiG4 (antibody, V domains shown) VH: EVQLQQSGPELVKPGASMKISCKASGYSFTGYTMNWVKQSHEKNLEWIGPINPYNDGTIYNPNFKGKATLTVDKASSTAYMELLSLTSDDPAVYYCARTDDYDDYTMDYWGQGTSVTVSS VL: EIQMTQTPSSLSASLGDRVTISCRASHDISNYLNWYQQKPDGTLKLLIYYTSRLHSGVPSRFSGSGSGTDYSLTISNLEQEDIATYFCQQGKTLLWTFGGGTKLEIK",binds,binds
"CLL-1 antibody clone G4 (antibody, IgG1, V domains shown, also called 31.G4; 31G4) VH: EVQLQQSGPELVKPGASMKISCKASGYSFTGYTMNWVKQSHEKNLEWIGPINPYNDGTIYNPNFKGKATLTVDKASSTAYMELLSLTSDDPAVYYCARTDDYDDYTMDYWGQGTSVTVSS VL: EIQMTQTPSSLSASLGDRVTISCRASHDISNYLNWYQQKPDGTLKLLIYYTSRLHSGVPSRFSGSGSGTDYSLTISNLEQEDIATYFCQQGKTLLWTFGGGTKLEIK",binds,binds
